These are yes or no findings as the source states them, for the method shown. In cells and extracts the contact can be indirect. Some results given as binding are weak or reduced against the parent protein; the word gives no strength. Tags and fused reporters may be left off the sequences shown.
T1: full-length FLAG-RASSF10 (mouse) (UniProt Q8BL43)
T1 sequence: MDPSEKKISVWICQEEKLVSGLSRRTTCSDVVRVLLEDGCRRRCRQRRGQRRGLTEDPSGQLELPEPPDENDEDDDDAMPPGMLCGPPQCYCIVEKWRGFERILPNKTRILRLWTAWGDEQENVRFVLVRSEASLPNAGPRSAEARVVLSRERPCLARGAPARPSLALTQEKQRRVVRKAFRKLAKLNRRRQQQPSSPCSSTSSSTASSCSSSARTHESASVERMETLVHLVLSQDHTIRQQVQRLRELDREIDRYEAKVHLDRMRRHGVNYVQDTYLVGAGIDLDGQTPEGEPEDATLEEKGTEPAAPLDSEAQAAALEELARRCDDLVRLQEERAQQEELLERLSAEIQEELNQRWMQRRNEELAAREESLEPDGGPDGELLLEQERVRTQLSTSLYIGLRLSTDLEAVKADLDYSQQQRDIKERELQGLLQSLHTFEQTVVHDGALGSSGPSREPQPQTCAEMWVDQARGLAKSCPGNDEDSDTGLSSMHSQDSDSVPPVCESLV

The chains behind the UniProt entries cited, without tags or fusion partners.
UniProt O75901: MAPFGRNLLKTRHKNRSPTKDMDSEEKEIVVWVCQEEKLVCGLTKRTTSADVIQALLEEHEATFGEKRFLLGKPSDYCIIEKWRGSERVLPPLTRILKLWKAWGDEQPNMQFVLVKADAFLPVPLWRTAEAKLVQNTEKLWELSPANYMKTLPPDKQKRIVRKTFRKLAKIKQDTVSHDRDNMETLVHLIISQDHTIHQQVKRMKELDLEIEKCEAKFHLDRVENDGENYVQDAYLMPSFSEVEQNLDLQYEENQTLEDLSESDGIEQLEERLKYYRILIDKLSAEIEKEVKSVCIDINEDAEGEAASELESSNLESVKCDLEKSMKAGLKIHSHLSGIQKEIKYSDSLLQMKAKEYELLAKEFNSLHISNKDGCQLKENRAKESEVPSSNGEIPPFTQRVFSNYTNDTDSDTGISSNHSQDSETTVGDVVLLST

T2: full-length FLAG-RASSF3 (UniProt Q86WH2)
T2 sequence: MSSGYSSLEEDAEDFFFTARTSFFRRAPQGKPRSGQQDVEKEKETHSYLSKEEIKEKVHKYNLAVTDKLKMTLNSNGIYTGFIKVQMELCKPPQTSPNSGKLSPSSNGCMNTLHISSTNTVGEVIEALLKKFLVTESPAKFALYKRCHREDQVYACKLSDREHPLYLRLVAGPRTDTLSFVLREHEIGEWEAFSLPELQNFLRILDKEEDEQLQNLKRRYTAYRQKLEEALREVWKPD

T3: full-length FLAG-RASSF4 (mouse) (UniProt Q8CB96)
T3 sequence: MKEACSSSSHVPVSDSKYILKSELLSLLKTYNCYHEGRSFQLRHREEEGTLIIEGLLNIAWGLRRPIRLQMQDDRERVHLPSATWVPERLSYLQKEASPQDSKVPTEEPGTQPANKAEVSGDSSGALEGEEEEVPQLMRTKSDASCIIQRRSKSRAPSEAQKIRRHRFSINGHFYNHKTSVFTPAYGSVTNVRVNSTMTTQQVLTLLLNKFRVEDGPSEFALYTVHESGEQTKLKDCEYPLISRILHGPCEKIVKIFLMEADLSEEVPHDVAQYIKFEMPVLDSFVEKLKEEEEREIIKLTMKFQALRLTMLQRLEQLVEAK

T4: full-length FLAG-RASSF2 (human) (UniProt P50749)
T4 sequence: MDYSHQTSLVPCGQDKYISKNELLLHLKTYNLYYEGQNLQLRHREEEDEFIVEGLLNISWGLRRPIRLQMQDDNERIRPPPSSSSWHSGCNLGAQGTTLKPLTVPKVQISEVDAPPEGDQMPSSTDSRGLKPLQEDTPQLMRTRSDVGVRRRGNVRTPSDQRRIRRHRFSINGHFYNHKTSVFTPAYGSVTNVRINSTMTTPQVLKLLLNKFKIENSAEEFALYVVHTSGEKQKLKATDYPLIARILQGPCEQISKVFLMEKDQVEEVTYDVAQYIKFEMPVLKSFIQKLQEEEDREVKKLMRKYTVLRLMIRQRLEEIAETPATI

T5: full-length FLAG-RASSF8 (UniProt Q8NHQ8)
T5 sequence: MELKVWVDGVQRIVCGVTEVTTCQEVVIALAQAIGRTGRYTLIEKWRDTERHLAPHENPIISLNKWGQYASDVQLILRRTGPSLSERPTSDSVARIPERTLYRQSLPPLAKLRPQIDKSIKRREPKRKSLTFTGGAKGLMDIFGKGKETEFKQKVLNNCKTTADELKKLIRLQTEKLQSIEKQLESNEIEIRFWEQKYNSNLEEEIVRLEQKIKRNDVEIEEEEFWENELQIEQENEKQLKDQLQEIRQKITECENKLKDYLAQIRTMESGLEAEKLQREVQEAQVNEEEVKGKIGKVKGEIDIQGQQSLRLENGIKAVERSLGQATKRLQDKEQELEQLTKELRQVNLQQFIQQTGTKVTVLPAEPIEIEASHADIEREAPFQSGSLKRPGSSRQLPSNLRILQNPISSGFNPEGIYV

T6: full-length FLAG-RASSF5 (human) (UniProt Q8WWW0)
T6 sequence: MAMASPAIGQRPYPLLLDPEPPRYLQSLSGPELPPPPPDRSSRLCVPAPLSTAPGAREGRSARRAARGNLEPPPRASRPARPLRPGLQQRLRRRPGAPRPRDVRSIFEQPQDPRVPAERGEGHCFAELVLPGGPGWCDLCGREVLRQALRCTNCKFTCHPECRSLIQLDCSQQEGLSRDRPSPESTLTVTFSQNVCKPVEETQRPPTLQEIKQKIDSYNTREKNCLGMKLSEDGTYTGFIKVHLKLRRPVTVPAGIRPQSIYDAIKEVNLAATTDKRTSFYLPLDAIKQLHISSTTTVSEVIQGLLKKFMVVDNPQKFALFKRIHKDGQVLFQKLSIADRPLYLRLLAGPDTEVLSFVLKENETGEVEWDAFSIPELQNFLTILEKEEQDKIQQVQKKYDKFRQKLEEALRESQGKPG

T7: full-length FLAG-RASSF6 (UniProt Q6ZTQ3)
T7 sequence: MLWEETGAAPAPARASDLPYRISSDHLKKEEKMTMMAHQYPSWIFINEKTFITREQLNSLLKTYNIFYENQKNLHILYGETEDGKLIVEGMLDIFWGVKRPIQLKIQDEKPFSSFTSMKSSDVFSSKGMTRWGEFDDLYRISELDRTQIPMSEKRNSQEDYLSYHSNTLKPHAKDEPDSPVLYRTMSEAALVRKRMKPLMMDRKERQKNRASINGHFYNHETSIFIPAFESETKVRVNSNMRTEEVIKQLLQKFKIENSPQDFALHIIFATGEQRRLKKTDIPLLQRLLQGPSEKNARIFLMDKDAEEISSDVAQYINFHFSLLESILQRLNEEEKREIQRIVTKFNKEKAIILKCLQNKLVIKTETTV

T8: full-length FLAG-RASSF1A (human) (UniProt Q9NS23)
T8 sequence: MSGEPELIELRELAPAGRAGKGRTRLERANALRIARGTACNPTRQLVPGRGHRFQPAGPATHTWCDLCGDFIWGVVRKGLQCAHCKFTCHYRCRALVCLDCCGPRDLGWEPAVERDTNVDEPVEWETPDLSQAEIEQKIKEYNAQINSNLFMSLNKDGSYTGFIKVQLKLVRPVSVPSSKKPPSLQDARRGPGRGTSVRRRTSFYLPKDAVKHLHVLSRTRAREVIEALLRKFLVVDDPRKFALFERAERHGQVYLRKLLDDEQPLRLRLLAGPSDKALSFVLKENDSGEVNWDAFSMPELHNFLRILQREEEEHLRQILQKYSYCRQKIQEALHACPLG


What was measured:
Assay in all cases: co-IP
[1] = target: T1, full-length FLAG-RASSF10 (mouse)
full-length FLAG-RASSF3 = target: T2, full-length FLAG-RASSF3
[2] = target: T3, full-length FLAG-RASSF4 (mouse)
[3] = target: full-length FLAG-RASSF9 (human) (UniProt O75901)
[4] = target: T4, full-length FLAG-RASSF2 (human)
full-length FLAG-RASSF8 = target: T5, full-length FLAG-RASSF8
[5] = target: T6, full-length FLAG-RASSF5 (human)
full-length FLAG-RASSF6 = target: T7, full-length FLAG-RASSF6
[6] = target: T8, full-length FLAG-RASSF1A (human)

binding [1] | binding (full-length FLAG-RASSF3) | binding [2] | binding [3] | binding [4] | binding (full-length FLAG-RASSF8) | binding [5] | binding (full-length FLAG-RASSF6) | binding [6] | Binder
binds | no binding | no binding | binds | no binding | binds | no binding | no binding | no binding | HIS-tagged ASPP1 (protein, UniProt Q96KQ4 1-1090) MMPMILTVFLSNNEQILTEVPITPETTCRDVVEFCKEPGEGSCHLAEVWRGNERPIPFDHMMYEHLQKWGPRREEVKFFLRHEDSPTENSEQGGRQTQEQRTQRNVINVPGEKRTENGVGNPRVELTLSELQDMAARQQQQIENQQQMLVAKEQRLHFLKQQERRQQQSISENEKLQKLKERVEAQENKLKKIRAMRGQVDYSKIMNGNLSAEIERFSAMFQEKKQEVQTAILRVDQLSQQLEDLKKGKLNGFQSYNGKLTGPAAVELKRLYQELQIRNQLNQEQNSKLQQQKELLNKRNMEVAMMDKRISELRERLYGKKIQLNRVNGTSSPQSPLSTSGRVAAVGPYIQVPSAGSFPVLGDPIKPQSLSIASNAAHGRSKSANDGNWPTLKQNSSSSVKPVQVAGADWKDPSVEGSVKQGTVSSQPVPFSALGPTEKPGIEIGKVPPPIPGVGKQLPPSYGTYPSPTPLGPGSTSSLERRKEGSLPRPSAGLPSRQRPTLLPATGSTPQPGSSQQIQQRISVPPSPTYPPAGPPAFPAGDSKPELPLTVAIRPFLADKGSRPQSPRKGPQTVNSSSIYSMYLQQATPPKNYQPAAHSALNKSVKAVYGKPVLPSGSTSPSPLPFLHGSLSTGTPQPQPPSESTEKEPEQDGPAAPADGSTVESLPRPLSPTKLTPIVHSPLRYQSDADLEALRRKLANAPRPLKKRSSITEPEGPGGPNIQKLLYQRFNTLAGGMEGTPFYQPSPSQDFMGTLADVDNGNTNANGNLEELPPAQPTAPLPAEPAPSSDANDNELPSPEPEELICPQTTHQTAEPAEDNNNNVATVPTTEQIPSPVAEAPSPGEEQVPPAPLPPASHPPATSTNKRTNLKKPNSERTGHGLRVRFNPLALLLDASLEGEFDLVQRIIYEVEDPSKPNDEGITPLHNAVCAGHHHIVKFLLDFGVNVNAADSDGWTPLHCAASCNSVHLCKQLVESGAAIFASTISDIETAADKCEEMEEGYIQCSQFLYGVQEKLGVMNKGVAYALWDYEAQNSDELSFHEGDALTILRRKDESETEWWWARLGDREGYVPKNLLGLYPRIKPRQRTLA
no binding | binds | binds | no binding | binds | no binding | binds | binds | binds | GFP-MST1 (enzyme, UniProt Q13043) METVQLRNPPRRQLKKLDEDSLTKQPEEVFDVLEKLGEGSYGSVYKAIHKETGQIVAIKQVPVESDLQEIIKEISIMQQCDSPHVVKYYGSYFKNTDLWIVMEYCGAGSVSDIIRLRNKTLTEDEIATILQSTLKGLEYLHFMRKIHRDIKAGNILLNTEGHAKLADFGVAGQLTDTMAKRNTVIGTPFWMAPEVIQEIGYNCVADIWSLGITAIEMAEGKPPYADIHPMRAIFMIPTNPPPTFRKPELWSDNFTDFVKQCLVKSPEQRATATQLLQHPFVRSAKGVSILRDLINEAMDVKLKRQESQQREVDQDDEENSEEDEMDSGTMVRAVGDEMGTVRVASTMTDGANTMIEHDDTLPSQLGTMVINAEDEEEEGTMKRRDETMQPAKPSFLEYFEQKEKENQINSFGKSVPGPLKNSSDWKIPQDGDYEFLKSWTVEDLQKRLLALDPMMEQEIEEIRQKYQSKRQPILDAIEAKKRRQQNF
binds | no binding | no binding | binds | no binding | binds | no binding | no binding | no binding | HIS-tagged ASPP2 (protein, UniProt Q13625 1-1128) MMPMFLTVYLSNNEQHFTEVPVTPETICRDVVDLCKEPGESDCHLAEVWCGSERPVADNERMFDVLQRFGSQRNEVRFFLRHERPPGRDIVSGPRSQDPSLKRNGVKVPGEYRRKENGVNSPRMDLTLAELQEMASRQQQQIEAQQQLLATKEQRLKFLKQQDQRQQQQVAEQEKLKRLKEIAENQEAKLKKVRALKGHVEQKRLSNGKLVEEIEQMNNLFQQKQRELVLAVSKVEELTRQLEMLKNGRIDSHHDNQSAVAELDRLYKELQLRNKLNQEQNAKLQQQRECLNKRNSEVAVMDKRVNELRDRLWKKKAALQQKENLPVSSDGNLPQQAASAPSRVAAVGPYIQSSTMPRMPSRPELLVKPALPDGSLVIQASEGPMKIQTLPNMRSGAASQTKGSKIHPVGPDWSPSNADLFPSQGSASVPQSTGNALDQVDDGEVPLREKEKKVRPFSMFDAVDQSNAPPSFGTLRKNQSSEDILRDAQVANKNVAKVPPPVPTKPKQINLPYFGQTNQPPSDIKPDGSSQQLSTVVPSMGTKPKPAGQQPRVLLSPSIPSVGQDQTLSPGSKQESPPAAAVRPFTPQPSKDTLLPPFRKPQTVAASSIYSMYTQQQAPGKNFQQAVQSALTKTHTRGPHFSSVYGKPVIAAAQNQQQHPENIYSNSQGKPGSPEPETEPVSSVQENHENERIPRPLSPTKLLPFLSNPYRNQSDADLEALRKKLSNAPRPLKKRSSITEPEGPNGPNIQKLLYQRTTIAAMETISVPSYPSKSASVTASSESPVEIQNPYLHVEPEKEVVSLVPESLSPEDVGNASTENSDMPAPSPGLDYEPEGVPDNSPNLQNNPEEPNPEAPHVLDVYLEEYPPYPPPPYPSGEPEGPGEDSVSMRPPEITGQVSLPPGKRTNLRKTGSERIAHGMRVKFNPLALLLDSSLEGEFDLVQRIIYEVDDPSLPNDEGITALHNAVCAGHTEIVKFLVQFGVNVNAADSDGWTPLHCAASCNNVQVCKFLVESGAAVFAMTYSDMQTAADKCEEMEEGYTQCSQFLYGVQEKMGIMNKGVIYALWDYEPQNDDELPMKEGDCMTIIHREDEDEIEWWWARLNDKEGYVPRNLLGLYPRIKPRQRSLA

Source: doi:10.1101/2020.02.05.923433 (bioRxiv, 2020)
